Source: paper PMC12043082
No constants are given. Whether binding was seen depends on the method and setting. Binding seen in cells or lysates may run through a third protein. Some binding calls cover weakened binding; strength is not graded here.

Amino acid sequences for entries named in this document (tags omitted).
UniProt Q5EG47: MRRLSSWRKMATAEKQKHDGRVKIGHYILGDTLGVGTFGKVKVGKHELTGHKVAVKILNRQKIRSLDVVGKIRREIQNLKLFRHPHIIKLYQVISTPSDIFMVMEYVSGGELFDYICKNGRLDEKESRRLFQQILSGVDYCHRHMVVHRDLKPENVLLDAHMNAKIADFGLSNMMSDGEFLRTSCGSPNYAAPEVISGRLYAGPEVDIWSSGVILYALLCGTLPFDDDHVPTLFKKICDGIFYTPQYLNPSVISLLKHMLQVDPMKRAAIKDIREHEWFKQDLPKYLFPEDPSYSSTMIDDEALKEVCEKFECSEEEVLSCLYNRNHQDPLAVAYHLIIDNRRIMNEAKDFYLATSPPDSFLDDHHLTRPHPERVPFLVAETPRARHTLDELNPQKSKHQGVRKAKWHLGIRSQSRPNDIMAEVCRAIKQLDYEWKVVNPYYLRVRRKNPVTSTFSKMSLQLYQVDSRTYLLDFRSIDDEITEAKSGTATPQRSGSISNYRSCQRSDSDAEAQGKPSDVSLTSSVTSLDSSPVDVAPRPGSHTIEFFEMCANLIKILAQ
UniProt P13864: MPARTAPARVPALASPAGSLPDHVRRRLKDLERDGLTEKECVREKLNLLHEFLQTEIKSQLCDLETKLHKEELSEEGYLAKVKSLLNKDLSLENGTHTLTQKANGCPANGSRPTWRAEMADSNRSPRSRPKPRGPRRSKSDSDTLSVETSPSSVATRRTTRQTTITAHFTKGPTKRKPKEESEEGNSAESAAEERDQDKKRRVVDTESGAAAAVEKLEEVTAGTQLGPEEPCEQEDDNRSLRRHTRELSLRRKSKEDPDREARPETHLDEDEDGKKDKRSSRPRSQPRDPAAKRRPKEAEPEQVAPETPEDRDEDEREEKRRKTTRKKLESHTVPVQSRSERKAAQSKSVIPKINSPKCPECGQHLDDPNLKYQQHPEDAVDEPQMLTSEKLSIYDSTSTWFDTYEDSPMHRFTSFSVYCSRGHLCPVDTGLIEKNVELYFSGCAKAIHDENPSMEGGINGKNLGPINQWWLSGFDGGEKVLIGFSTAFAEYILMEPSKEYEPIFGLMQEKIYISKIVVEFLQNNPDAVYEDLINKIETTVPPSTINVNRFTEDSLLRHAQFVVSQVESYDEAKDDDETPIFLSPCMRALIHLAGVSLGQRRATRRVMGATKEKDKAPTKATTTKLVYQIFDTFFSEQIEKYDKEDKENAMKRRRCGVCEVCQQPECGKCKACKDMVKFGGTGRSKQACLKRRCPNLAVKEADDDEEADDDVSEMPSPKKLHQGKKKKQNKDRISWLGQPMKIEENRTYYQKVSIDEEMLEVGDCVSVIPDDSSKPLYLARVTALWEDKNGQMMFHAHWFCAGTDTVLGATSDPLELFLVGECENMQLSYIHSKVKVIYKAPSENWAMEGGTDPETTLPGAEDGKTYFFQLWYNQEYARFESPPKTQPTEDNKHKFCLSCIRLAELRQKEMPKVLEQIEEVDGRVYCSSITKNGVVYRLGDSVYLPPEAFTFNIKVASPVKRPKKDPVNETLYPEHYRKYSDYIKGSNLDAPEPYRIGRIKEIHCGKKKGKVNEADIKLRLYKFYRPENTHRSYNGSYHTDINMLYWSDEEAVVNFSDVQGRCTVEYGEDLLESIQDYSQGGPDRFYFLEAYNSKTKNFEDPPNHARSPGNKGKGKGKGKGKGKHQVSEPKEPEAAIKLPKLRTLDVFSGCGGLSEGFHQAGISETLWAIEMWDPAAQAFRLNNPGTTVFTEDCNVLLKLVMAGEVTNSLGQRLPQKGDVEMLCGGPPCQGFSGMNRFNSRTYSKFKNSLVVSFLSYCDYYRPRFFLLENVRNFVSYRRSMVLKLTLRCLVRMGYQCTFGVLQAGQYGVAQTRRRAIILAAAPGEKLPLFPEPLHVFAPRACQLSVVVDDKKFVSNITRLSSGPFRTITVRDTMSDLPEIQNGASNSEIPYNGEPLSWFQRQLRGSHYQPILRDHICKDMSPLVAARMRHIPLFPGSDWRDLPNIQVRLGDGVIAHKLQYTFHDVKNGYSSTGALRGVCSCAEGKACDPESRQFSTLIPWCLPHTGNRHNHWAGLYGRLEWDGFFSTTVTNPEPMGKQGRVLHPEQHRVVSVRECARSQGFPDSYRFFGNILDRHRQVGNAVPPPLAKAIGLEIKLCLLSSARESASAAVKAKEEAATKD

Molecular target: AMPKα1 (α1 catalytic subunit of AMP-activated protein kinase), mouse (mouse (endogenous in primary iTreg cells)) (UniProt Q5EG47)
Test: co-IP; lysate of 1 x 10^6 primary mouse iTreg cells; anti-AMPKα1 (Abcam ab32047) or isotype control overnight at 4°C, Protein G beads, blotted for DNMT1

For “DNA methyltransferase 1 (DNMT1), mouse (from UniProt P13864 1-1620)”, the binding was “binds”.
